These are yes or no findings as the source states them, for the method shown. In cells and extracts the contact can be indirect. Binding calls can cover weak binding; strength is not graded here. Sequences can lack the tags named with a protein.
Molecular target: T1, V5-tagged CORO2B (mouse) (UniProt Q8BH44)
T1 sequence: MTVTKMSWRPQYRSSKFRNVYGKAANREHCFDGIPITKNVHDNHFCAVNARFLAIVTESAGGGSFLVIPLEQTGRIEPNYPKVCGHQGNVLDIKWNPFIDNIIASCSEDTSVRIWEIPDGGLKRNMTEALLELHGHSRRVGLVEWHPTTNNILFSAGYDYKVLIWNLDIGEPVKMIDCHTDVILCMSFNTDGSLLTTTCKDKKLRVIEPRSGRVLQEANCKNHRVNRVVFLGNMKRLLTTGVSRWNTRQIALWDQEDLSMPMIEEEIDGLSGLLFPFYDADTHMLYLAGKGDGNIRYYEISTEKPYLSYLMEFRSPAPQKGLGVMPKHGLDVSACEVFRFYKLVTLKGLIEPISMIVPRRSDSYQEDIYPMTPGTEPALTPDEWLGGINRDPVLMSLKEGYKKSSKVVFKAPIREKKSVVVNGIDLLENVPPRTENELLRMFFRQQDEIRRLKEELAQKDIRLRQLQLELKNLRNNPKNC
Test: co-IP; HEK293T cells transfected with the indicated constructs, 24 h; lysis in 1% Triton X-100 buffer (50 mM NaCl, 50 mM NaF, 15 mM Na4P2O7, 1 mM EDTA, pH 7.4); anti-V5 antibody 12 h at 4 °C, protein G-Sepharose beads, 5 washes; western blot

binding	Substance
binds	TALIN
binds	VINCULIN (from UniProt P18206-2)
